Measurements published in patent publication US20060094059A1, “Methods for identifying new drug leads and new therapeutic uses for known drugs” (Odyssey Thera, Inc., priority 2004, published 2006).

Legend:
PAK4:Cofilin = assay: Protein-fragment complementation assay PAK4:Cofilin; type: cell-based, human; conditions: hit in PAK4/CFL assay; drugs screened at 10 micromolar
Description: (§1) To construct dynamic assays for protein-protein complexes, we used a protein-fragment complementation assay strategy (PCAs) in intact human cells. (A variety of other suitable assays, and reporter options, are described in detail below.) The principle of PCA is that complementary polypeptide fragments (F[1] and F[2]) of a reporter protein or enzyme will fold into an active form only if fused to two proteins which interact and bring the complementary fragments of the reporter protein into proximity. Reconstitution of the fragments of the reporter protein generates a fluorescent signal that can be quantified in intact cells, and the amount of the signal is proportional to the amount of the protein-protein complex used in constructing the assay. Given a suitable reporter type, the subcellular location of the complex can also be measured.
(§2) Reporter fragments for PCA were generated by oligonucleotide synthesis (Blue Heron Biotechnology, Bothell, Wash.), starting with the sequence of yellow fluorescent protein (YFP). First, oligonucleotides coding for polypeptide fragments YFP[1]and YFP[2] […] Next, PCR mutagenesis was used to generate the mutant fragments IFP[1] and IFP[2]. The IFP[1] fragment corresponds to YFP[1]-(F46L, F64L, M153T) and the IFP[2] fragment corresponds to YFP[2]-(V163A, S175G). […]

[1] = system: glioblastoma (U-87 MG) cells; assay: MTT proliferation assay, glioblastoma; type: cell-based; conditions: Homo sapiens, Tumor Cell Glioblastoma (U-87 MG), 120 hours, read-out: Anti-proliferative IC-50
Experimental: (§3) Cells were maintained in various media as follows: A549, LoVo and PC-3 (Ham's F12K medium with 2 mM L-glutamine and 1.5 g/L sodium bicarbonate), MIA PaCa-2 (Dulbecco's modified Eagle's medium with 4 mM L-glutamine and 4.5 g/L glucose), U87-MG (MEM+Earle's BSS). Medium for each cell line was supplemented with 10% FBS and […] Penecillin/Streptomycin. All cells were grown in incubators set at 37° C., 5% CO2. Thiazolyl Blue Tetrazolium Bromide (MTT) based proliferation assays were performed to assess the anti-proliferative activities of the compounds on these cells. Cells were seeded in 96 well plates at a density of 750 cells/well 24 hours prior to compound treatment. The cells were incubated with varying concentrations of compounds for 120 hours. […] Drug treatment was performed in 5 replicate wells. Background absorbance was established by wells containing medium but no cells. Vehicle (DMSO) only was used as control. MTT (Sigma-Aldrich, St. Louis, Mo.) was added to each well at a final concentration of 0.5 mg/ml. Following a 2 hour incubation at 37° C., medium in the wells was replaced with 0.15 ml DMSO. The plates were agitated for 15 min using a microtiter plate shaker.

CDC42:PAK4 complexes = assay: Protein-fragment complementation assay CDC42:PAK4; type: cell-based, human; conditions: hit in CDC42/PAK4 assay; drugs screened at 10 micromolar
Description: as §1, §2

[2] = system: pancreatic carcinoma (MIA PaCa-2) cells; assay: MTT proliferation assay, pancreatic; type: cell-based; conditions: Homo sapiens, Tumor Cell Pancreatic (MIA PaCa-2), 120 hours, read-out: Anti-proliferative IC-50
Experimental: as §3

Compound: C(=C\c1ccccc1)/CN1CCN(C(c2ccccc2)c2ccccc2)CC1 [Cinnarizine]
- Assay activity (PAK4:Cofilin): PAK4/CFL
- IC50 [1]: 13.5 µM
- Assay activity (CDC42:PAK4 complexes): CDC42/PAK4,
- IC50 [2]: 11.1 µM
